Data source: PubChem BioAssay AID1259254 (NCATS, 2017)
Here is an unselected part of about 59,000 reagents tested. Of all reagents, about 1,550 (2.6%) are marked active. 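G2 share is only a proxy for re-replication; each gene was hit by three separate siRNAs, and active genes were retested.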 The numbers tell different reagents against one gene apart. Not all columns of the deposit are shown. Not stated in the record: the amount of reagent.

Aim: 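Genome-wide screen for genes that prevent DNA re-replication in cancer cells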 (primary screen)
Cell system: human HCT116 colorectal cancer cells
Reagents: single siRNA against human genes
Timing: 3 days
Measured: 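Nuclei stained with Hoechst and imaged; cell-cycle phase assigned by DNA content; G2 share scaled per plate, non-targeting siRNA 0%, GMNN siRNA 100%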
Direction: G2 robust z-score: higher = more G2 cells, more excess DNA replication
Active means: 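Active siRNAs have a G2 robust z of 5 or more median absolute deviations over the median, which in these data means about 38% or higher of GMNN control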

| target | reagent no. | G2 robust z-score | Outcome |
| --- | --- | --- | --- |
| ZZEF1 (GeneID 23140) | 1 | -1.06 | inactive |
| ZZEF1 (GeneID 23140) | 2 | 1.21 | inactive |
| ZZEF1 (GeneID 23140) | 3 | -0.735 | inactive |
| CSAD (GeneID 51380) | 1 | -0.829 | inactive |
| CSAD (GeneID 51380) | 2 | -1.4 | inactive |
| CSAD (GeneID 51380) | 3 | 2.69 | inactive |
| PVALB (GeneID 5816) | 1 | -0.565 | inactive |
| PVALB (GeneID 5816) | 2 | -0.493 | inactive |
| PVALB (GeneID 5816) | 3 | -0.333 | inactive |
| LINC00960 (GeneID 401074) | 1 | 0.426 | inactive |
| LINC00960 (GeneID 401074) | 2 | 2.8 | inactive |
| LINC00960 (GeneID 401074) | 3 | -1.03 | inactive |
| RTL10 (GeneID 79680) | 1 | 0.472 | inactive |
| RTL10 (GeneID 79680) | 2 | 0.13 | inactive |
| RTL10 (GeneID 79680) | 3 | 1.49 | inactive |
| ALKBH4 (GeneID 54784) | 1 | -0.161 | inactive |
| ALKBH4 (GeneID 54784) | 2 | 0.845 | inactive |
| ALKBH4 (GeneID 54784) | 3 | -0.943 | inactive |
| GALNTL6 (GeneID 442117) | 1 | 1.68 | inactive |
| GALNTL6 (GeneID 442117) | 2 | -0.357 | inactive |
| GALNTL6 (GeneID 442117) | 3 | -0.377 | inactive |
| LGALS12 (GeneID 85329) | 1 | -0.247 | inactive |
| LGALS12 (GeneID 85329) | 2 | -0.607 | inactive |
| LGALS12 (GeneID 85329) | 3 | -0.544 | inactive |
| SLC9A8 (GeneID 23315) | 1 | -0.98 | inactive |
| SLC9A8 (GeneID 23315) | 2 | 0.424 | inactive |
| SLC9A8 (GeneID 23315) | 3 | 2.09 | inactive |
| C2CD2L (GeneID 9854) | 1 | 0.769 | inactive |
| C2CD2L (GeneID 9854) | 2 | -0.71 | inactive |
| C2CD2L (GeneID 9854) | 3 | -0.571 | inactive |
